Source: patent US20250059139A1, “COMPOUNDS FOR TREATMENT OF CANCER” (THE JOHNS HOPKINS UNIVERSITY, priority 2021, published 2025)
For at least one compound, name, drawing or mass did not settle the structure.

Tested on: CWR22-RH human prostate cancer PDXs
Assay: In vivo growth of CWR22-RH xenografts in castrate NSG male mice
Source text: Prostate Cancer Models. The source, history, and characteristics of the human prostate cancer cell lines and PDXs used, as well as cell culture conditions for their in vitro maintenance and the in vivo protocol for xenograft growth in triple immune-deficient NSG (i.e. NOD.Cg-PrkdcScidIl2rgtmlWji/Szj), adult (>8 week old) male mice obtained from the Sidney Kimmel Comprehensive Cancer Center (SKCCC) Animal Core Facility are described previously (Isaacs 2013; Brennen et al. JCI Insight. 2021, 6(8):e146827; Zhu et al. Oncogene 2020, 39(45): 6935-6949). Similar information concerning the TRAMP-C2 and B6CaP mouse prostate cancers originating in a C57BL/6J male mice are described previously (Foster et al. Cancer Res. 1997, 57: 3325-3330; Simons et al. Oncotarget. 2019, 10(64):6845-6854). In vitro growth curves were determined as described (Isaacs 2013). In vivo growth response to oral daily TasQ (10 mg/kg/d) of TRAMP-C2 mouse prostate cancers was evaluated in C57BL/6J syngeneic wild type vs. NOX-2 vs. iNOS null male mice obtained from Jackson Laboratory (Bar Harbor, ME). Growth response to oral daily TasQ (10 mg/kg/d) of TRAMP-C2 and B6CaP mouse prostate cancers was also evaluated in S100A9 null C57BL′6J male mice obtained from Dmitry Gabrilovich (Wistar Institute). […] In vitro growth curves were determined as described (Isaacs 2013). […]

Structure (SMILES) | growth inhibitor (GI) activity on CWR22-RH xenografts (SAR summary)
COc1cccc2c1c(O)c(C(=O)N(c1ccccc1)C1CCCCC1)c(=O)n2C [ESATA-28] | no GI activity
COc1cccc2c1c(O)c(C(=O)N(c1ccccc1)C(C)C)c(=O)n2C [ESATA-27] | no GI activity
